Experimental data reported in PMC4166665.
No constants are given. Whether binding was seen depends on the method and setting. In cells and extracts the contact can be indirect. Some entries that bind do so weakly or less than the wild type.

Chains of the proteins cited; added tags and fusions are not shown. Residues count along the entry.
UniProt P08025, residues 49-118: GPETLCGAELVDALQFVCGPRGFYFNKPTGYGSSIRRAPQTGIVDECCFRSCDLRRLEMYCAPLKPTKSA
UniProt P15473, residues 28-292: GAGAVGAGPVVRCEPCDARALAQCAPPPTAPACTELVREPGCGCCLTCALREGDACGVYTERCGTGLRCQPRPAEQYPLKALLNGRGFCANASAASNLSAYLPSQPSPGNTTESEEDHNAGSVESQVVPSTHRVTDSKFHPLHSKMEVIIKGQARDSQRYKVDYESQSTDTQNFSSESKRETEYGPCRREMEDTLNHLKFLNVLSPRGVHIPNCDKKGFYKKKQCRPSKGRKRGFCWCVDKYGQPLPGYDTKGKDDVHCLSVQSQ
UniProt P24594, residues 20-271: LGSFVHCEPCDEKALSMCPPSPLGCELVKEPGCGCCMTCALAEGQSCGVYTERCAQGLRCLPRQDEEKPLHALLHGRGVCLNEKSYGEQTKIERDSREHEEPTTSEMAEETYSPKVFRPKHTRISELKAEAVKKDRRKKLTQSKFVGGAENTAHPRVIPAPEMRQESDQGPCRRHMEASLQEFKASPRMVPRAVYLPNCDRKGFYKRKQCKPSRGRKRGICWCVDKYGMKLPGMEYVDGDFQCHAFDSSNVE

Molecular target: Insulin-like Growth Factor 1 (rat (endogenous in plasma)) (UniProt P08025)
Assay: co-IP; 900 µg of albumin- and IgG-depleted rat plasma (control and 14-day hindlimb-unloaded rats), pre-cleared with protein G magnetic beads; IGF-1 antibody overnight, protein G magnetic beads 1h30 at room temperature, 4 washes with PBS 0.05% Tween; western blot for IGFBPs

Substance	binding
IGFBP3 (from UniProt P15473 28-292)	binds
IGFBP5 (from UniProt P24594 20-271)	binds
